Reference: publication PMC6895603
These are yes or no findings as the source states them, for the method shown. Binding seen in cells or lysates may run through a third protein. Some results given as binding are weak or reduced against the parent protein; the word gives no strength.

Chains of the proteins cited; added tags and fusions are not shown. Lines headed by an entry give the natural chain unless they say otherwise; changes in a name come on top.
UniProt Q13936: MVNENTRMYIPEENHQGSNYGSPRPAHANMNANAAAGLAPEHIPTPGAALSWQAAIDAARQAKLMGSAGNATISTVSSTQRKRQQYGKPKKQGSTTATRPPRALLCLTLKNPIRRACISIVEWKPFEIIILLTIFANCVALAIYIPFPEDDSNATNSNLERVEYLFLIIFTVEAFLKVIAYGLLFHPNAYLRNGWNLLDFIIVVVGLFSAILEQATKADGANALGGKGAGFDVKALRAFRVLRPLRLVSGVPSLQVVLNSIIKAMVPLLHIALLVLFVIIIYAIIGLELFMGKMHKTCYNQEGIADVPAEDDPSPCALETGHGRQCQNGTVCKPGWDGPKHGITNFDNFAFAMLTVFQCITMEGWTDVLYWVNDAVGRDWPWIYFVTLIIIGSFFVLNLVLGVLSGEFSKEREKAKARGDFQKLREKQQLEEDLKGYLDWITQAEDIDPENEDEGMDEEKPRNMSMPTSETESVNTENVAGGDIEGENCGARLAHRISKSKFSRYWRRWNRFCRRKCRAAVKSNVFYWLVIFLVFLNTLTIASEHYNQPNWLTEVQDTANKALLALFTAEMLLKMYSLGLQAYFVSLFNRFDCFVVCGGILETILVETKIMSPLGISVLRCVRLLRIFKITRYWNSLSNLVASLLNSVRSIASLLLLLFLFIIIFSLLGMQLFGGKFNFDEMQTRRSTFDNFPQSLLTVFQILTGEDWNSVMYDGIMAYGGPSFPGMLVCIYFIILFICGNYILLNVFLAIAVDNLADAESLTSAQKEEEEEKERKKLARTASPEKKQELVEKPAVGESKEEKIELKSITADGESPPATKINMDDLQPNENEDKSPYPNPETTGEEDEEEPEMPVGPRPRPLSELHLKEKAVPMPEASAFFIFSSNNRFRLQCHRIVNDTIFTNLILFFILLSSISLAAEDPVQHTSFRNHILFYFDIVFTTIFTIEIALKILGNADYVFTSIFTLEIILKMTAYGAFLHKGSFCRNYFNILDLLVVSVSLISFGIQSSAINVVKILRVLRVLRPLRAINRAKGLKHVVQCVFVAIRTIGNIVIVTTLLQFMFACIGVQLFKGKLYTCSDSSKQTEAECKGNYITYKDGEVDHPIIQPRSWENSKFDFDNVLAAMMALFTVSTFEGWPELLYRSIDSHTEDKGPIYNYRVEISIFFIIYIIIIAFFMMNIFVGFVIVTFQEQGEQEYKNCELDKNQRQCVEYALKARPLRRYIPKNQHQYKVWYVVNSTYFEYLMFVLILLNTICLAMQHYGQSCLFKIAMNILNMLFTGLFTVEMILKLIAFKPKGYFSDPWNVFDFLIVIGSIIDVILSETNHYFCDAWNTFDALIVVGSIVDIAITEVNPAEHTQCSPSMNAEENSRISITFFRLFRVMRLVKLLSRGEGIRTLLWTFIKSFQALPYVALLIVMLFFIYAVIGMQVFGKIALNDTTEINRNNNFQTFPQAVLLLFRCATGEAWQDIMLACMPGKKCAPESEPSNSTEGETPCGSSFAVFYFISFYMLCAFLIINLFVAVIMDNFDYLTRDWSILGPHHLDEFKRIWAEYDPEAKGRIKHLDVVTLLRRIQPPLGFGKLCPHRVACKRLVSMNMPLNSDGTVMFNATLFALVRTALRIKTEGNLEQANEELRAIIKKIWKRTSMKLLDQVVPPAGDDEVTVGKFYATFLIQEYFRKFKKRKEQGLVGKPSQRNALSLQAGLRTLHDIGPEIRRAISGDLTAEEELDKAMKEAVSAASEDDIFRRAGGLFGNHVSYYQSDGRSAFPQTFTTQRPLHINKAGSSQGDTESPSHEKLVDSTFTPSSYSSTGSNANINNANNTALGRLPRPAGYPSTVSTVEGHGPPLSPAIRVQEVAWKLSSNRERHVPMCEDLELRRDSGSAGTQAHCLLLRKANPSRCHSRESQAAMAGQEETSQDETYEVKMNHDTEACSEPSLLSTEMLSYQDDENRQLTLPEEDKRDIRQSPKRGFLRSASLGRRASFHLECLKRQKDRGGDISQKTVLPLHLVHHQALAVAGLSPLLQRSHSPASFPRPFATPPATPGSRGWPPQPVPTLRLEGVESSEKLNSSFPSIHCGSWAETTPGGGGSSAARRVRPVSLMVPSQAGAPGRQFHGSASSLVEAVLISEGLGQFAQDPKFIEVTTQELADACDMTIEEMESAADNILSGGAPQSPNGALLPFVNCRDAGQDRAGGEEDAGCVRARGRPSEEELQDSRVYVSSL
UniProt P35609: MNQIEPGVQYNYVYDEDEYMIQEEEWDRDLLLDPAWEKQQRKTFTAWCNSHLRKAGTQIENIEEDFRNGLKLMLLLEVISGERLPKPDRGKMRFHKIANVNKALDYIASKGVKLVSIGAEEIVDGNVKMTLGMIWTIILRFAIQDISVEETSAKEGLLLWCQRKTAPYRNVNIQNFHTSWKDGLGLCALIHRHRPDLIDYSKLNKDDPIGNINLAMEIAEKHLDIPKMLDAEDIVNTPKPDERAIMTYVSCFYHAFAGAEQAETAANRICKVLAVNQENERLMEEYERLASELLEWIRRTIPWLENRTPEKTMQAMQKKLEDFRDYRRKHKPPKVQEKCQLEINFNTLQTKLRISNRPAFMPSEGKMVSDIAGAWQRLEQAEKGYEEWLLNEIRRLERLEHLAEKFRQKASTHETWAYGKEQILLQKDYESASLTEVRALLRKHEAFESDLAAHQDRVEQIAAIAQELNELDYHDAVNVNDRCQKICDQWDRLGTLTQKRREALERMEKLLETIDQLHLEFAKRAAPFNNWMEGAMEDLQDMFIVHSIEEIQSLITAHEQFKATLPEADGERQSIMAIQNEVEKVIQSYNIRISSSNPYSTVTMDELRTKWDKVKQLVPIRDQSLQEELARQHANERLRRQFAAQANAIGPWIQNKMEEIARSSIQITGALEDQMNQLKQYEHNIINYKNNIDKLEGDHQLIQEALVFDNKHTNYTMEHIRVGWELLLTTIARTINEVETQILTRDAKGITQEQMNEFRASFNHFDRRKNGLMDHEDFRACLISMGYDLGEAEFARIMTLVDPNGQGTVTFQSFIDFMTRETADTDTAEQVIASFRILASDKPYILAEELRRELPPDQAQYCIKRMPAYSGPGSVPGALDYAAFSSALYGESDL

Key:
[1] = target: Cavα1.2-NanoLuc (pore unit of the L-type Ca2+ channel) (UniProt Q13936); assay: FRET or BRET; NanoBRET in live HL-1 cells; Cavα1.2-NanoLuc:ACTN2-Halo (WT or mutant) transfected 1:100; with co-transfected Cavβ2; 100 nmol/l NanoBRET 618 ligand 48 h after transfection, read 5 h later
[2] = target: Cavα1.2-NanoLuc (pore unit of the L-type Ca2+ channel) (UniProt Q13936); assay: FRET or BRET; NanoBRET in live HL-1 cells; Cavα1.2-NanoLuc:ACTN2-Halo (WT or mutant) transfected 1:100; no Cavβ2 added; 100 nmol/l NanoBRET 618 ligand 48 h after transfection, read 5 h later

| binding [1] | binding [2] | Substance |
| --- | --- | --- |
| binds | binds | ACTN2-Halo WT (α-actinin 2, wild type) (from UniProt P35609 1-894) |
| binds | binds | ACTN2-Halo mutant (α-actinin 2 p.T247M) (from UniProt P35609 1-894) |
